The experiment has as its target T1, C3a anaphylatoxin chemotactic receptor (C3AR1) (UniProt Q16581).
T1 sequence: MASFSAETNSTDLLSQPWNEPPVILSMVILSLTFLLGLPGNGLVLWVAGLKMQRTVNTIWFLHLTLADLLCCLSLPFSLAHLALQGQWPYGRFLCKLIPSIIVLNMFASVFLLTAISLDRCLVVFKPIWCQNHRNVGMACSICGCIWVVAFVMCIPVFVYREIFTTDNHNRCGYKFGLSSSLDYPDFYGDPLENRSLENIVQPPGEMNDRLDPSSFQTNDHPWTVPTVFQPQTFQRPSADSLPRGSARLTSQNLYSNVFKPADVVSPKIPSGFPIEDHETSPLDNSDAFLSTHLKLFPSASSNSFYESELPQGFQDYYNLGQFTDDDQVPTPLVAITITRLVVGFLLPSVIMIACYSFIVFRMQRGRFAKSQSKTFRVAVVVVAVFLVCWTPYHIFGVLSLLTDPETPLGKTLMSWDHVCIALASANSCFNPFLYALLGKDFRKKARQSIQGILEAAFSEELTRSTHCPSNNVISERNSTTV
The experiment is described as follows: co-IP; Co-IP of C3AR1 and ITGB2 (Fig 4B); cells, antibodies, bait and conditions not described.

By UniProt entry, the sequences of proteins in these tests, tags left out. Residues count along the entry.
UniProt P05107, residues 23-769: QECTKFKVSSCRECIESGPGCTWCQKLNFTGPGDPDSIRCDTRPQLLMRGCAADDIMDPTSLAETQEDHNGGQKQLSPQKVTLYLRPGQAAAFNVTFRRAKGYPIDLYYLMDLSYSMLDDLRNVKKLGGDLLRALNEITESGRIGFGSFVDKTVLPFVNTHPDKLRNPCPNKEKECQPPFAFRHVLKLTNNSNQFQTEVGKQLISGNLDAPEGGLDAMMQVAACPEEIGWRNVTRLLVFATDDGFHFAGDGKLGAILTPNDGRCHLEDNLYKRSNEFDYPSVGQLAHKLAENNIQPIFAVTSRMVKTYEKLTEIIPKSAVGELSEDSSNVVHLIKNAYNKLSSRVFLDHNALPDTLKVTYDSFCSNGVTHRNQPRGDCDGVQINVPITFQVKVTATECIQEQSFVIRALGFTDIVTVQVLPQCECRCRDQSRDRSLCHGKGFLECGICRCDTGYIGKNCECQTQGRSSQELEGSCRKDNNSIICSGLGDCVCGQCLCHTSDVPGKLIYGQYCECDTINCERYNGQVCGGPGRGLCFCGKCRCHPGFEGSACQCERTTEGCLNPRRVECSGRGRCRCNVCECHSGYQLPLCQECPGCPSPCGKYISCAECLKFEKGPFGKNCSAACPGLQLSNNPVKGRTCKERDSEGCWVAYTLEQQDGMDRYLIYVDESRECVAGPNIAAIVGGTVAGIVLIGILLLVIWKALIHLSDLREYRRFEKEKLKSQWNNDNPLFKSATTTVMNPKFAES

These are yes or no findings as the source states them, for the method shown. Binding seen in cells or lysates may run through a third protein. Some entries that bind do so weakly or less than the wild type.

Take “Integrin subunit beta 2 (ITGB2) (from UniProt P05107 23-769)”: the binding result is “binds”.

Values taken from paper PMC12431250.
